Publication PMC8426237, “A first-in-human phase I study of TAS0728, an oral covalent binding inhibitor of HER2, in patients with advanced solid tumors with HER2 or HER3 aberrations” (Investigational New Drugs, 2021)

Assay: Phase I safety assessment: adverse events (CTCAE v5.0) in patients
Conditions: overall all treated population (N = 19)

C=CC(=O)N1CCC[C@@H](n2nc(C(=O)Nc3ccc(CC(=O)N(C)C)c(C)c3C)c3c(N)ncnc32)C1 [TAS0728]
Mean relative dose intensity (actual amount of dose administered/amount of planned dose): 74.9%
Median number of cycles: 4.6
Median treatment duration: 81.0 days
